According to PMC4849146:
No constants are given. Whether binding was seen depends on the method and setting. In cells and extracts the contact can be indirect. Some results given as binding are weak or reduced against the parent protein; the word gives no strength.

The chains behind the UniProt entries cited, without tags or fusion partners.
UniProt Q9Y572: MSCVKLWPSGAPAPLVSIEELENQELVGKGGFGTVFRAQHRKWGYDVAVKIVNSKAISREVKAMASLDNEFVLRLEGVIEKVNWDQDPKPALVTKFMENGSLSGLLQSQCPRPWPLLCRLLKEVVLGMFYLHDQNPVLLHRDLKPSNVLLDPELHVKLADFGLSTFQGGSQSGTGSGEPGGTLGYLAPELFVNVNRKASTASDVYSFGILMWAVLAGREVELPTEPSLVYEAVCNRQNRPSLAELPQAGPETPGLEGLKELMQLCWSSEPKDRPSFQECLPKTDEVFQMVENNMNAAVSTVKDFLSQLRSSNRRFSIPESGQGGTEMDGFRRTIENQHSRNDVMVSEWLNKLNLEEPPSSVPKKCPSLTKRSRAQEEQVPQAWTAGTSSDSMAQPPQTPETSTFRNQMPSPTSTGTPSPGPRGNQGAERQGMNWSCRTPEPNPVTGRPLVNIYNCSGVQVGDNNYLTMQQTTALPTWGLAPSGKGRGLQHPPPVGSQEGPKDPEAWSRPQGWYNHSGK
UniProt Q13546: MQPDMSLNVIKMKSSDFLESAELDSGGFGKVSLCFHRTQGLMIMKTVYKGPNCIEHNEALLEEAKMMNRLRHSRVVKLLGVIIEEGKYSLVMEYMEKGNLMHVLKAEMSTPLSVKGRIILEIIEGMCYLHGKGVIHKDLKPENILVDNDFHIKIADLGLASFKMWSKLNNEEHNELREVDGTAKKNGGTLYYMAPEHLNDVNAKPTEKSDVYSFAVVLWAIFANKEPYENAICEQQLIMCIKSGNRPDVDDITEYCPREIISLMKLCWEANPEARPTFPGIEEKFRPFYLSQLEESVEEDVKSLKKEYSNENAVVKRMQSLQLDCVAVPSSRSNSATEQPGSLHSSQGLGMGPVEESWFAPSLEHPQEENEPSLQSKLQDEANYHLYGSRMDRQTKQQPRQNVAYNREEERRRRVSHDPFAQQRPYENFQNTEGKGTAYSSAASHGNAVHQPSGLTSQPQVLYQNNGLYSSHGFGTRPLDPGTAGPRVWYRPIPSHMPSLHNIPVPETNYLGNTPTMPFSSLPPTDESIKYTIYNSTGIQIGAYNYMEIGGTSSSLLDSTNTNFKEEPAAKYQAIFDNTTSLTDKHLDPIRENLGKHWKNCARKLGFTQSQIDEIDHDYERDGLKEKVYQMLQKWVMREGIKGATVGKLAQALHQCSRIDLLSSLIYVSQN

Target: endogenous RIP3 (HT29) (human (endogenous in HT29)) (UniProt Q9Y572)
Assay: co-IP; endogenous proteins, HT29 whole-cell extracts; cells untreated or stimulated with TNF alone or TSZ (TNF, Smac mimetic, z-VAD) for 8 h; immunoprecipitation with anti-RIP3 or anti-IgG, western blot

binding: binds
Substance: endogenous RIP1 (HT29) (from UniProt Q13546 1-671)
